The target of the assay is full-length, wildtype human SLC19A3 (hSLC19A3-wt) (human) (UniProt Q9BZV2). The experiment in a line: SEC; purified hSLC19A3-wt on Superdex S200 10/300 Increase in 20 mM Tris-HCl pH7.4, 150 mM NaCl, 0.002% LMNG, 0.0002% CHS; both purified. For orientation: SEC sorts molecules by how far they enter the pores of the column.

Sequences of proteins named here, by UniProt entry; tags and fusion partners are left off.
UniProt Q9BZV2: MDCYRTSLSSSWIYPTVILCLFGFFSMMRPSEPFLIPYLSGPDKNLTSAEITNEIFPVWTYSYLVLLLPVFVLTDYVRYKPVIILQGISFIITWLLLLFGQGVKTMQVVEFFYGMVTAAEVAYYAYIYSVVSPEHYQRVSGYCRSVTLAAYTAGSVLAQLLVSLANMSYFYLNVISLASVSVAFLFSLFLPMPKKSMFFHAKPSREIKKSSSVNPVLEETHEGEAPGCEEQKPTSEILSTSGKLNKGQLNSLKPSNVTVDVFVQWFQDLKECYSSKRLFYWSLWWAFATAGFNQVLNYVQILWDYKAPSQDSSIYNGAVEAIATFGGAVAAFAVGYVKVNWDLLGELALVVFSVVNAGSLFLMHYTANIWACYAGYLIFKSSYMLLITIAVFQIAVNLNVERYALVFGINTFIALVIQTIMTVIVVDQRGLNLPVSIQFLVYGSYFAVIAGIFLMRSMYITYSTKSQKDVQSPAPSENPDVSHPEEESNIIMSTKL

These are yes or no findings as the source states them, for the method shown.

Take “full-length, wildtype human SLC19A3 (hSLC19A3-wt) (from UniProt Q9BZV2 1-496)”: the binding entry is given as “no binding”.

(Values after PMC11447181 (Nature Communications, 2024).)
